Measured values: PubChem BioAssay AID1117319 (Southern Research Institute, 2015)
Several values for one entry are separate records, joined by “and”; a condition that tells them apart may be missing. Equal entries are not always repeated. Out of some 260,000 compounds screened, about 1,500 (0.58%) were called active. The shares of active, inactive and inconclusive entries below differ from those in the screen.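 Rule for the calls: active = inhibition above a set limit at one or more doses, reproduced on every date tested; inconclusive = results disagree between test dates, or hit never tested in dose response; inactive = the rest.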

Chains of the proteins cited; added tags and fusions are not shown. Lines headed by an entry give the natural chain unless they say otherwise; changes in a name come on top.
UniProt P69720: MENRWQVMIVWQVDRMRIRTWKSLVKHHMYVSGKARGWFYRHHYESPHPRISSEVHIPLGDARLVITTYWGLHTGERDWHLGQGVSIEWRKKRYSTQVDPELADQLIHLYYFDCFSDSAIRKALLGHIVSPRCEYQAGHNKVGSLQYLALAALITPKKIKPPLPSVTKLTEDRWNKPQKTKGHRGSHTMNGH
UniProt P69721: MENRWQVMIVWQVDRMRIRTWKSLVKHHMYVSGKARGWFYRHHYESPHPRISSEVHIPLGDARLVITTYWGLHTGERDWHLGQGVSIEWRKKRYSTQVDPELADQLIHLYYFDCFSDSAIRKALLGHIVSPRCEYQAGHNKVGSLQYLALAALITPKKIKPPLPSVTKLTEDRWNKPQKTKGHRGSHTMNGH
UniProt P69722: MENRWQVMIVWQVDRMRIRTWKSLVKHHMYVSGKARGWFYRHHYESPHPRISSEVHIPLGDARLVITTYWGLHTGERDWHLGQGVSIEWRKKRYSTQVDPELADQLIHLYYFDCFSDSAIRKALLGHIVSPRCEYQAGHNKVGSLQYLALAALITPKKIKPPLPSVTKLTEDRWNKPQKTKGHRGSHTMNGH
UniProt P69723: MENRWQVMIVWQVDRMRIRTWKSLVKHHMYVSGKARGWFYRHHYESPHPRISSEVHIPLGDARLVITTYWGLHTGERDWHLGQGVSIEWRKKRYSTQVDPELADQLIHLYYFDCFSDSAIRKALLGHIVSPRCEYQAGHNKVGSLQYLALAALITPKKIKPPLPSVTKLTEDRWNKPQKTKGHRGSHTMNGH
UniProt Q9HC16: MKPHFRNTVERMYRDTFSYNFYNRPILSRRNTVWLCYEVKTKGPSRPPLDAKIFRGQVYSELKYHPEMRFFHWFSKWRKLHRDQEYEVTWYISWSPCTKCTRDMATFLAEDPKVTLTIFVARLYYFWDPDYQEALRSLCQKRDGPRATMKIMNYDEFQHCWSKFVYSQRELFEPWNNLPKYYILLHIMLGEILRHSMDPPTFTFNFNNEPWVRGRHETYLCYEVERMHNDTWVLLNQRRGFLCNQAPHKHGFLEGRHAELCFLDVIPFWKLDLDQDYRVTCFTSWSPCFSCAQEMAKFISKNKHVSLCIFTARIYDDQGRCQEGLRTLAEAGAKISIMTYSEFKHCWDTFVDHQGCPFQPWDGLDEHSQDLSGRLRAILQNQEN

These compounds were tested against Virion infectivity factor (Human immunodeficiency virus type 1 group M subtype B (isolate BH10)) + Virion infectivity factor (Human immunodeficiency virus type 1 group M subtype B (isolate BRU/LAI)) + Virion infectivity factor (Human immunodeficiency virus type 1 group M subtype B (isolate PCV12)) + Virion infectivity factor (Human immunodeficiency virus type 1 group M subtype B (isolate HXB2)) + DNA dC->dU-editing enzyme APOBEC-3G (Homo sapiens) (UniProt P69720+P69721+P69722+P69723+Q9HC16) (assay: inhibitors of Vif binding to APOBEC3G peptide, primary screen, biochemical, TR-FRET, GST-Vif 1-94, biotin-A3G peptide, dose response retest (AID 1117319;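 note: Vif residues 1-94 fused to GST binding biotinylated APOBEC3G peptide 110-148; 0% = full assay without inhibitor and 100% = GST in place of GST-Vif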)). Settings: active compounds read high.
`CCC(C)(C)n1nnnc1C(c1ccc(OC)c(OC)c1)N1CCN(c2ccc(F)cc2)CC1` (stereo unspecified) was tested, and the inhibition was inconclusive: 57.8%.
With `CCOC(=O)Nc1ccc2c(c1)OCO2` the inhibition was inactive: -0.36%.
`N#CC1=C(Nc2ccccc2)SC=C(c2ccc(F)cc2)N=C1N1CCOCC1` was tested, and the inhibition was inactive: -6.08%.
In the case of `CC1=C/C(=N\N=C2\NC(=O)C(CC(=O)Nc3ccccc3)S2)CC(C)(C)C1` (stereo unspecified), the inhibition is reported as inconclusive: 53.9%.
For `Cn1c(=O)c([N+](=O)[O-])c(-n2ccnc2)c2ccccc21`, the inhibition was inconclusive: 56.1%.
`C=CCNC(=O)CC(=O)N/N=C/c1ccc(C(=O)OC)cc1` was tested, and the inhibition was inconclusive: 57.9%.
`Cc1c(NC(=O)c2c(F)c(F)c(F)c(F)c2F)c(=O)n(-c2ccccc2)n1C` was tested, and the inhibition was inconclusive: 5.44%.
For `CCOc1ccccc1NC(=O)CCN1CCN(S(=O)(=O)c2ccc(Br)cc2)CC1`, the inhibition was inactive: -2.68% and inactive: -11.1%.
For `CC(OC(=O)c1cccnc1)C(=O)Nc1ccc2c(c1)OCO2` (stereo unspecified), the inhibition was inconclusive: 48.2%.
For `COc1ccc(-n2nc(C(=O)c3cccs3)cc(-c3nc4ccccc4[nH]3)c2=N)cc1`, the inhibition was inconclusive: 57.5%.
For `COCc1nnc(NC(=O)c2ccco2)s1`, the inhibition was inconclusive: 50%.
With `Cc1oncc1C(=O)Nc1ccc(C(F)(F)F)cc1` the inhibition was inconclusive: 58.3%.
For `O=C(c1ccc(NC(=S)Nc2ccc(F)cc2F)cc1)N1CCOCC1`, the inhibition was inconclusive: 57.4%.
`Cc1ccc2cc(CN(Cc3cccs3)Cc3nnnn3CC3CCCO3)c(=O)[nH]c2c1` (stereo unspecified) was tested, and the inhibition was inconclusive: 52.5%.
With `CCCCNS(=O)(=O)c1ccc(NC(=O)Cc2ccccc2[N+](=O)[O-])cc1` the inhibition was inconclusive: 46.7%.
`Cc1[nH]c(=O)c(C#N)c(C)c1[N+](=O)[O-]` was tested, and the inhibition was inconclusive: 39.9%.
With `CC(/C=C1\SC(=S)N(CCCC(=O)Nc2ccc(C(=O)O)cc2)C1=O)=C\c1ccccc1` the inhibition was inconclusive: 37.2%.
`CCS(=O)(=O)c1ccc(N=Nc2ccc(O)c3ncccc23)c(OC)c1` was tested, and the inhibition was inconclusive: 37.2%.
In the case of `CN(CCC#N)C(=O)COC(=O)c1nn(-c2ccccc2)c(=O)c2ccccc12`, the inhibition is reported as inactive: -3.88%.
In the case of `CC(=O)Nc1ccc(-c2csc(NNC(=O)c3ccccc3)n2)cc1`, the inhibition is reported as inconclusive: 43.2%.
In the case of `CC1=NNC(=O)C1CCC(=O)N/N=C/c1ccccc1` (stereo unspecified), the inhibition is reported as inconclusive: 51.9%.
`O=C(Nc1ccc(F)cc1Cl)c1ccc2c(=O)n3c(nc2c1)CCC3` was tested, and the inhibition was inactive: 2.76%.
For `CCc1ccc(N2C(=O)C3ON(c4ccccc4)C(c4ccco4)C3C2=O)cc1` (stereo unspecified), the inhibition was inactive: -3.31%.
With `CN1CCN(c2nc3c(c(=O)[nH]c(=O)n3C)n2CCSc2nc3ccccc3s2)CC1` the inhibition was inconclusive: 61.9%.
For `CC(C)C1Nc2ccc(S(N)(=O)=O)cc2C2C=CCC21` (stereo unspecified), the inhibition was inactive: 30.5%.
`O=C(COc1ccc(Cl)cc1Cl)c1ccc[nH]1` was tested, and the inhibition was inactive: 19.3%.
In the case of `CSc1nnc(SCc2nc3sc(C(=O)O)c(C)c3c(=O)[nH]2)s1`, the inhibition is reported as inconclusive: 38.8%.
`CCc1ccc(C2CC(c3ccc(F)cc3)Nc3nc(N)nn32)cc1` (stereo unspecified) was tested, and the inhibition was inconclusive: 32.9%.
For `CCCS(=O)(=O)N1CCC(C(=O)NCc2ccc(F)cc2)CC1`, the inhibition was inconclusive: 34.1%.
For `CCN(CC)C(=O)CSc1nc(-c2ccc(C)cc2)nc2c1COC(C)(C)C2`, the inhibition was inconclusive: 39.9%.
With `COc1cc(OC)cc(C(=O)N2CCN=C2SCc2cccnc2)c1` the inhibition was inconclusive: 54.1%.
With `O=C(CN1C(=O)CCSc2ccccc21)Nc1ccccc1` the inhibition was inconclusive: 49%.
In the case of `OCCNCCSc1ccc(Cl)cc1`, the inhibition is reported as inconclusive: 56.9%.
For `CC(=O)c1ccc(OC(=O)CCN2c3ccccc3Sc3ccccc32)cc1`, the inhibition was inactive: 3.97%.
In the case of `O=C1N/C(=C/c2ccco2)C(=O)N1Cc1ccccc1F`, the inhibition is reported as inconclusive: 54.7%.
`COc1ccccc1/C=C/C=N/NC(=O)CC1C(=O)NN=C1C` (stereo unspecified) was tested, and the inhibition was inconclusive: 47.3%.
With `COc1cccc(C2SCC(=O)N2c2ccc(Cl)cc2)c1OC` (stereo unspecified) the inhibition was inconclusive: 45.1%.
With `COc1ccc(NC(=O)Cn2ncc(Cl)c(Cl)c2=O)cc1S(=O)(=O)N1CCOCC1` the inhibition was inconclusive: 39.4%.
For `Oc1c(C=Nc2cccc3nsnc23)ccc2ccccc12`, the inhibition was inconclusive: 37.6%.
In the case of `COCCCn1c(SCC(=O)NC(C)C)nnc1-c1ccccc1`, the inhibition is reported as inconclusive: 35.2%.
With `CC(=O)N(Cc1ccccc1)c1ncc2c(n1)c(=O)c(C#N)c1ccccn12` the inhibition was inconclusive: 58.4%.
With `COc1ccc(C(=O)NNC(=O)C(=O)NC2CCCCC2)cc1` the inhibition was inconclusive: 44%.
For `C(=N\Nc1ccccc1)/c1ccc(N2CCOCC2)cc1`, the inhibition was inconclusive: 50.5%.
With `OCCC1CN(Cc2cc(F)ccc2-n2cccn2)CCN1Cc1ccc(F)cc1` (stereo unspecified) the inhibition was inconclusive: 63.4%.
With `COc1ccccc1NC(=O)Cn1c(CCC(=O)O)ccc1-c1ccccc1` the inhibition was inactive: -8.03%.
With `CN1C(=O)C(O)(CC(=O)c2ccncc2)c2ccccc21` (stereo unspecified) the inhibition was inconclusive: 51.2%.
`CCOC(=O)CC1=C(C(=O)OCC)C(c2ccc(C)o2)C(C#N)=C(N)O1` (stereo unspecified) was tested, and the inhibition was inconclusive: 37.7%.
In the case of `O=C(N/C(=C\c1cccnc1)c1nc2ccccc2[nH]1)c1cccc(Br)c1`, the inhibition is reported as inconclusive: 35.5%.
With `Cc1ccc(C(=O)COC(=O)CNC(=O)c2ccc(N3C(=O)c4ccccc4C3=O)cc2)cc1C` the inhibition was inconclusive: 34.8%.
With `Cc1cc(C)nc(Nc2n[nH]c(Cc3ccccc3)n2)n1` the inhibition was inconclusive: 49.3%.
For `CCCOC(=O)CSc1nnc(-c2ccccc2Cl)o1`, the inhibition was inconclusive: 60.6%.
For `Cn1c(=O)oc2cc(S(=O)(=O)NCCC(=O)NC3CCCc4ccccc43)ccc21` (stereo unspecified), the inhibition was inconclusive: 46.1%.
`Cc1ccc(C(C(=O)NC2CCCC2)N(C(=O)CCC(=O)Nc2cc(C)on2)c2ccccc2)cc1` (stereo unspecified) was tested, and the inhibition was inconclusive: 35.5%.
`CC1(C)CC(=O)C(C=Nc2ccc(C(=O)c3ccccc3)cc2N=CC2=C(O)CC(C)(C)CC2=O)=C(O)C1` was tested, and the inhibition was inconclusive: 64.8%.
For `Cc1cc(=O)oc(C)c1C(=O)NCC(C)C`, the inhibition was inconclusive: 37.5%.
With `O=C(COc1ccccc1)N1CCN=C1SCc1ccc(F)cc1` the inhibition was inconclusive: 47.5%.
